Values from PubChem BioAssay AID1224828 (NIAID, 2016).
The deposit covers about 17,000 reagents; this is a part drawn at random. 762 of them (4.5%) count as active. 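Active calls include both raised and lowered p65 entry, mostly lowered; wells with fewer than 50 cells lack a z-score.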 The raw values are shown without normalisation.

- Test: 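Regulators linking TLR4 signalling to p65 nuclear translocation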 (primary screen)
- Cells: mouse RAW264.7 G9 macrophage reporter cells (GFP-p65, Tnf promoter-mCherry)
- Reagent: siRNA pool against mouse genes, 100 nM
- Timing: 2 days siRNA transfection, then 40 min LPS before fixation
- Challenge: LPS (Salmonella minnesota R595) at 10 ng/ml
- Measured: 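Imaged p65 nuclear translocation ratio, normalised to the plate median, converted to robust z-scores and averaged across two replicates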
- Direction: p65 translocation robust z-score: higher = more nuclear NF-kappaB p65 after LPS than the plate median; nuclear/cytoplasmic p65 ratio: higher = more nuclear NF-kappaB p65
- Call rule: 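Called active when z exceeds 3.3 or falls under -1.56 (median of Tlr4 controls), giving activity score of at least 50; no calls for control wells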
- Calls: active = hit (p65 shift raised or lowered); inactive = no clear change

Knock-down of Cpeb4 (cytoplasmic polyadenylation element binding protein 4) gave: p65 translocation robust z-score -0.38; nuclear/cytoplasmic p65 ratio, rep 1 = 1.5; nuclear/cytoplasmic p65 ratio, rep 2 = 1.74; low cell count flag enough cells to score; inactive. Knock-down of Or5d47 (olfactory receptor family 5 subfamily D member 47) resulted in: p65 translocation robust z-score -1.64; nuclear/cytoplasmic p65 ratio, rep 1 = 1.22; nuclear/cytoplasmic p65 ratio, rep 2 = 1.11; low cell count flag enough cells to score; active. With knock-down of Gins3 (GINS complex subunit 3) the results were p65 translocation robust z-score 0.84; nuclear/cytoplasmic p65 ratio, rep 1 = 1.45; nuclear/cytoplasmic p65 ratio, rep 2 = 1.64; low cell count flag enough cells to score; inactive. Map4k2 (mitogen-activated protein kinase kinase kinase kinase 2) showed nuclear/cytoplasmic p65 ratio, rep 1 = 1.56; nuclear/cytoplasmic p65 ratio, rep 2 = 1.33; low cell count flag fewer than 50 cells per well; well left out of scoring; inactive. With knock-down of Plrg1 (pleiotropic regulator 1), the record shows p65 translocation robust z-score -1.07; nuclear/cytoplasmic p65 ratio, rep 1 = 1.23; nuclear/cytoplasmic p65 ratio, rep 2 = 1.37; low cell count flag enough cells to score; inactive. Depletion of Hmgb3 (high mobility group box 3) came out at: p65 translocation robust z-score -0.97; nuclear/cytoplasmic p65 ratio, rep 1 = 1.31; nuclear/cytoplasmic p65 ratio, rep 2 = 1.25; low cell count flag enough cells to score; inactive.

Dhx35 (DEAH-box helicase 35) showed p65 translocation robust z-score 1.02; nuclear/cytoplasmic p65 ratio, rep 1 = 1.73; nuclear/cytoplasmic p65 ratio, rep 2 = 1.68; low cell count flag enough cells to score; inactive. Myom1 (myomesin 1) showed p65 translocation robust z-score -0.05; nuclear/cytoplasmic p65 ratio, rep 1 = 1.73; nuclear/cytoplasmic p65 ratio, rep 2 = 1.62; low cell count flag enough cells to score; inactive. For Zfp36l2 (zinc finger protein 36, C3H type-like 2), the entry reads p65 translocation robust z-score -0.24; nuclear/cytoplasmic p65 ratio, rep 1 = 1.35; nuclear/cytoplasmic p65 ratio, rep 2 = 1.22; low cell count flag enough cells to score; inactive. Against Ncbp2as2 (Ncbp2 antisense 2 (head to head)), the entry reads p65 translocation robust z-score -1.02; nuclear/cytoplasmic p65 ratio, rep 1 = 1.35; nuclear/cytoplasmic p65 ratio, rep 2 = 1.36; low cell count flag enough cells to score; inactive. With knock-down of Oas1e (2'-5' oligoadenylate synthetase 1E) the results were p65 translocation robust z-score 0.57; nuclear/cytoplasmic p65 ratio, rep 1 = 1.91; nuclear/cytoplasmic p65 ratio, rep 2 = 1.52; low cell count flag enough cells to score; inactive. Arhgef26 (Rho guanine nucleotide exchange factor 26) gave nuclear/cytoplasmic p65 ratio, rep 1 = 1.57; nuclear/cytoplasmic p65 ratio, rep 2 = 1.5; low cell count flag fewer than 50 cells per well; well left out of scoring; inactive.

5730493B19Rik (RIKEN cDNA 5730493B19 gene) showed p65 translocation robust z-score 1.33; nuclear/cytoplasmic p65 ratio, rep 1 = 1.47; nuclear/cytoplasmic p65 ratio, rep 2 = 1.7; low cell count flag enough cells to score; inactive. Knock-down of Tmt1b (thiol methyltransferase 1B) came out at: p65 translocation robust z-score 2.34; nuclear/cytoplasmic p65 ratio, rep 1 = 1.88; nuclear/cytoplasmic p65 ratio, rep 2 = 1.76; low cell count flag enough cells to score; inactive. Knock-down of Pmfbp1 (polyamine modulated factor 1 binding protein 1) gave: nuclear/cytoplasmic p65 ratio, rep 1 = 1.23; nuclear/cytoplasmic p65 ratio, rep 2 = 1.14; low cell count flag fewer than 50 cells per well; well left out of scoring; inactive. Knock-down of Slc25a41 came out at: nuclear/cytoplasmic p65 ratio, rep 1 = 1.17; nuclear/cytoplasmic p65 ratio, rep 2 = 1.21; low cell count flag fewer than 50 cells per well; well left out of scoring; inactive. L3hypdh (L-3-hydroxyproline dehydratase (trans-)) scored p65 translocation robust z-score 1.17; nuclear/cytoplasmic p65 ratio, rep 1 = 1.55; nuclear/cytoplasmic p65 ratio, rep 2 = 1.41; low cell count flag enough cells to score; inactive. Tmem45a2 (transmembrane protein 45A2) gave nuclear/cytoplasmic p65 ratio, rep 1 = 1.02; nuclear/cytoplasmic p65 ratio, rep 2 = 0.946; low cell count flag fewer than 50 cells per well; well left out of scoring; inactive.

For Slc9a7, the entry reads p65 translocation robust z-score 0.31; nuclear/cytoplasmic p65 ratio, rep 1 = 1.38; nuclear/cytoplasmic p65 ratio, rep 2 = 1.61; low cell count flag enough cells to score; inactive. Against Tcfl5 (transcription factor-like 5 (basic helix-loop-helix)), the values are p65 translocation robust z-score -0.51; nuclear/cytoplasmic p65 ratio, rep 1 = 1.46; nuclear/cytoplasmic p65 ratio, rep 2 = 1.43; low cell count flag enough cells to score; inactive. Cyp26b1 (cytochrome P450, family 26, subfamily b, polypeptide 1) gave p65 translocation robust z-score 0.53; nuclear/cytoplasmic p65 ratio, rep 1 = 1.5; nuclear/cytoplasmic p65 ratio, rep 2 = 2.04; low cell count flag enough cells to score; inactive.

A run of entries taken from the entries so far, as a working copy:
Slc9a7 | p65 translocation robust z-score = 0.31; nuclear/cytoplasmic p65 ratio, rep 1 = 1.38; nuclear/cytoplasmic p65 ratio, rep 2 = 1.61; low cell count flag = enough cells to score; outcome = inactive
Tcfl5 (transcription factor-like 5 (basic helix-loop-helix)) | p65 translocation robust z-score = -0.51; nuclear/cytoplasmic p65 ratio, rep 1 = 1.46; nuclear/cytoplasmic p65 ratio, rep 2 = 1.43; low cell count flag = enough cells to score; outcome = inactive
